Source: PMC6434023, “A TonB-dependent transporter is required for secretion of protease PopC across the bacterial outer membrane” (Nature Communications, 2019)
These are yes or no findings as the source states them, for the method shown. For part of these data: In cells and extracts the contact can be indirect. Some entries that bind do so weakly or less than the wild type.

Protein sequences, listed by entry. Tags and fused reporters are not part of them. Residues count along the entry.
UniProt P02929, residues 139-239: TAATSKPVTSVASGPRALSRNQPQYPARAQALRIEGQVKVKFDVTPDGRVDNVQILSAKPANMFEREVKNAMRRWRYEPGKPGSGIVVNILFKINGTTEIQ

Key:
[1] = biological target: T1, TonB-dependent transporter Oar (MXAN_1450) (M. xanthus (endogenous in DK101)) (UniProt P38370); test: cross-linking; in vivo DSP (0.25 mM, 30 min, 30 °C, PBS) on M. xanthus cells starved for 6 h; membrane fraction isolated, with or without 50 mM DTT; immunoblots with α-PopC and α-Oar; Δoar and popC mutants as controls
T1 sequence: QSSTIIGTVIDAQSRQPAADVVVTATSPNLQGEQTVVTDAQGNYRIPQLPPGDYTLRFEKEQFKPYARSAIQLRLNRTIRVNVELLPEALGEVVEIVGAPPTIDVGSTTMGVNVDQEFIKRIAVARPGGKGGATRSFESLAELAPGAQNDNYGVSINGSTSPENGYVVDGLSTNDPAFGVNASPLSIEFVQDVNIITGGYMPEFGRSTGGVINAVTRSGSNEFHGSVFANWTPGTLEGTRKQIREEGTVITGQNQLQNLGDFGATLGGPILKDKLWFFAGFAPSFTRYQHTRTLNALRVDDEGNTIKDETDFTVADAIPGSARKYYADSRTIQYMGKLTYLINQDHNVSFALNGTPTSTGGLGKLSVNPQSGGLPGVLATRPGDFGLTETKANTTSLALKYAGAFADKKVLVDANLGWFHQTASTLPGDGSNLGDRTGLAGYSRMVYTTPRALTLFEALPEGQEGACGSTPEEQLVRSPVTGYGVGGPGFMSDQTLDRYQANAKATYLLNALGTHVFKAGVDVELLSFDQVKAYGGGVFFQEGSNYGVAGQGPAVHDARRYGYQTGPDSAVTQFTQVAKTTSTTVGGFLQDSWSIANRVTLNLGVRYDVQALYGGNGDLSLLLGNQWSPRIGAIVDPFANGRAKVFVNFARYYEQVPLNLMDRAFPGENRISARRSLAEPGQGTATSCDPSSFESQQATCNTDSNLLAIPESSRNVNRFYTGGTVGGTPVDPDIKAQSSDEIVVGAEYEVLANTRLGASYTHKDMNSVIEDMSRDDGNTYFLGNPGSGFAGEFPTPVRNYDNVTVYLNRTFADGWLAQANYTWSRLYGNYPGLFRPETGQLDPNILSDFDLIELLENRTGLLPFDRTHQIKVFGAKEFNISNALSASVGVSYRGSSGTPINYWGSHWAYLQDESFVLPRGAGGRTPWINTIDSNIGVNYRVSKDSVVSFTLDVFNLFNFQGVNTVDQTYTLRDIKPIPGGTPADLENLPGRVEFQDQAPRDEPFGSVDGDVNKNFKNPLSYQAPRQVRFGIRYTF

[2] = biological target: C-terminal domain of TonB from E. coli (TonB 139-239) (E. coli) (UniProt P02929); test: two-hybrid; bacterial two-hybrid (BACTH) in E. coli BTH101; fragments fused N- or C-terminally to T25 and T18 of CyaA; blue colour on X-Gal/IPTG plates and β-galactosidase specific activity
[3] = biological target: T2, PopC expressed in E. coli (M. xanthus, UniProt Q1DFT5 1-475); test: co-IP; α-PopC antibodies and protein G magnetic beads on isolated membranes (50 mM HEPES pH 7.5, 150 mM NaCl, 5 mM EDTA, 1% sodium lauroylsarcosinate) of E. coli WT and ΔtonB expressing PopC and/or Oar; 4 °C; immunoblots for PopC and Oar
T2 construct: PopC of Myxococcus xanthus, expressed as 'native' PopC in E. coli; no tag is named; 'Native' probably means the untagged whole protein; also called native PopC; source: E. coli Rosetta-2(DE3) (WT or ΔtonB), IPTG-induced, in isolated membranes / cell fractions
T2 sequence (looked up): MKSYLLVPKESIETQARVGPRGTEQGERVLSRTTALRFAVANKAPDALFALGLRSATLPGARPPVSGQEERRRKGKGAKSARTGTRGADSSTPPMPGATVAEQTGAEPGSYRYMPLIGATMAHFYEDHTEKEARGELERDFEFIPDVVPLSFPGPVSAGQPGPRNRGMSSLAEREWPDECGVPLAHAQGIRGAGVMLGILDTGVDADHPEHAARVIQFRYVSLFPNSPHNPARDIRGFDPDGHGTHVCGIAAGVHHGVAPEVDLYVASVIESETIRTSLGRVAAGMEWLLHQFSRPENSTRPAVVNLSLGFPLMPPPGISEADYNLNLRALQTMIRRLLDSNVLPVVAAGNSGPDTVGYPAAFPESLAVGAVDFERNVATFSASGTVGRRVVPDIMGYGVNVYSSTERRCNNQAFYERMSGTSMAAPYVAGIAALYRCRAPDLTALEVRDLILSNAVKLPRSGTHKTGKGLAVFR

B1: protease PopC (enzyme, UniProt Q1DFT5 1-475)
chain: MKSYLLVPKESIETQARVGPRGTEQGERVLSRTTALRFAVANKAPDALFALGLRSATLPGARPPVSGQEERRRKGKGAKSARTGTRGADSSTPPMPGATVAEQTGAEPGSYRYMPLIGATMAHFYEDHTEKEARGELERDFEFIPDVVPLSFPGPVSAGQPGPRNRGMSSLAEREWPDECGVPLAHAQGIRGAGVMLGILDTGVDADHPEHAARVIQFRYVSLFPNSPHNPARDIRGFDPDGHGTHVCGIAAGVHHGVAPEVDLYVASVIESETIRTSLGRVAAGMEWLLHQFSRPENSTRPAVVNLSLGFPLMPPPGISEADYNLNLRALQTMIRRLLDSNVLPVVAAGNSGPDTVGYPAAFPESLAVGAVDFERNVATFSASGTVGRRVVPDIMGYGVNVYSSTERRCNNQAFYERMSGTSMAAPYVAGIAALYRCRAPDLTALEVRDLILSNAVKLPRSGTHKTGKGLAVFR
Q: Which binding [1] does the source give for B1 here?
A: The binding was “binds”.

B2: periplasmic N-terminal region of Oar that bears NTE and plug domains (Oar 24-248) (domain or fragment, UniProt P38370 24-248)
chain: AFAQSSTIIGTVIDAQSRQPAADVVVTATSPNLQGEQTVVTDAQGNYRIPQLPPGDYTLRFEKEQFKPYARSAIQLRLNRTIRVNVELLPEALGEVVEIVGAPPTIDVGSTTMGVNVDQEFIKRIAVARPGGKGGATRSFESLAELAPGAQNDNYGVSINGSTSPENGYVVDGLSTNDPAFGVNASPLSIEFVQDVNIITGGYMPEFGRSTGGVINAVTRSGSNE
Q: How did the binding [2] turn out when B2 was run?
A: Its binding is “binds”.

B3: Oar expressed in E. coli (natural protein, M. xanthus, UniProt P38370 27-1061, looked up)
chain: QSSTIIGTVIDAQSRQPAADVVVTATSPNLQGEQTVVTDAQGNYRIPQLPPGDYTLRFEKEQFKPYARSAIQLRLNRTIRVNVELLPEALGEVVEIVGAPPTIDVGSTTMGVNVDQEFIKRIAVARPGGKGGATRSFESLAELAPGAQNDNYGVSINGSTSPENGYVVDGLSTNDPAFGVNASPLSIEFVQDVNIITGGYMPEFGRSTGGVINAVTRSGSNEFHGSVFANWTPGTLEGTRKQIREEGTVITGQNQLQNLGDFGATLGGPILKDKLWFFAGFAPSFTRYQHTRTLNALRVDDEGNTIKDETDFTVADAIPGSARKYYADSRTIQYMGKLTYLINQDHNVSFALNGTPTSTGGLGKLSVNPQSGGLPGVLATRPGDFGLTETKANTTSLALKYAGAFADKKVLVDANLGWFHQTASTLPGDGSNLGDRTGLAGYSRMVYTTPRALTLFEALPEGQEGACGSTPEEQLVRSPVTGYGVGGPGFMSDQTLDRYQANAKATYLLNALGTHVFKAGVDVELLSFDQVKAYGGGVFFQEGSNYGVAGQGPAVHDARRYGYQTGPDSAVTQFTQVAKTTSTTVGGFLQDSWSIANRVTLNLGVRYDVQALYGGNGDLSLLLGNQWSPRIGAIVDPFANGRAKVFVNFARYYEQVPLNLMDRAFPGENRISARRSLAEPGQGTATSCDPSSFESQQATCNTDSNLLAIPESSRNVNRFYTGGTVGGTPVDPDIKAQSSDEIVVGAEYEVLANTRLGASYTHKDMNSVIEDMSRDDGNTYFLGNPGSGFAGEFPTPVRNYDNVTVYLNRTFADGWLAQANYTWSRLYGNYPGLFRPETGQLDPNILSDFDLIELLENRTGLLPFDRTHQIKVFGAKEFNISNALSASVGVSYRGSSGTPINYWGSHWAYLQDESFVLPRGAGGRTPWINTIDSNIGVNYRVSKDSVVSFTLDVFNLFNFQGVNTVDQTYTLRDIKPIPGGTPADLENLPGRVEFQDQAPRDEPFGSVDGDVNKNFKNPLSYQAPRQVRFGIRYTF
notes: Oar (MXAN_1450) of Myxococcus xanthus, expressed as 'native' Oar in E. coli; no tag is named; 'Native' probably means the untagged protein with its own signal peptide; it was found enriched in the E. coli outer membrane; also called native Oar; source: E. coli Rosetta-2(DE3) (WT or ΔtonB), IPTG-induced, in isolated membranes / cell fractions
Q: How did the binding [3] turn out when B3 was run?
A: Its binding is “binds”.
